From the supplement of paper PMC4604168 (melanoma cell lines)
The other results are listed elsewhere or left out. Single values are uncertain, as repeats are few or missing.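 The apoptosis fraction was the count of cleaved-PARP antibody-stained nuclei relative to all DNA-stained nuclei, imaged in 1,536-well plates. Screening doses were set so most cells survived, and baseline and induced cleaved-PARP levels vary greatly across cell lines.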

Experiments:
Assay in all cases: cleaved PARP positive nuclei fraction relative to DMSO control; melanoma cells; higher = more apoptosis
Details in all cases: library dose: low library concentration; 72 h
501Mel = system: 501Mel
A101D = system: A101D
A2058 = system: A2058
C32 = system: C32
CBRC008 = system: CBRC008 (line from a melanoma biopsy)
CBRC014 = system: CBRC014 (line from a melanoma biopsy)
CBRC016 = system: CBRC016 (line from a melanoma biopsy)
CBRC017 = system: CBRC017 (line from a melanoma biopsy)
COLO792 = system: COLO792
COLO800 = system: COLO800
COLO829 = system: COLO829
G361 = system: G361
IPC-298 = system: IPC-298
IST-MEL1 = system: IST-MEL1
LB2518-MEL = system: LB2518-MEL
LOXIMVI = system: LOXIMVI

SMILES | cleaved PARP positive nuclei fraction (501Mel) [%] | cleaved PARP positive nuclei fraction (A101D) [%] | cleaved PARP positive nuclei fraction (A2058) [%] | cleaved PARP positive nuclei fraction (C32) [%] | cleaved PARP positive nuclei fraction (CBRC008) [%] | cleaved PARP positive nuclei fraction (CBRC014) [%] | cleaved PARP positive nuclei fraction (CBRC016) [%] | cleaved PARP positive nuclei fraction (CBRC017) [%] | cleaved PARP positive nuclei fraction (COLO792) [%] | cleaved PARP positive nuclei fraction (COLO800) [%] | cleaved PARP positive nuclei fraction (COLO829) [%] | cleaved PARP positive nuclei fraction (G361) [%] | cleaved PARP positive nuclei fraction (IPC-298) [%] | cleaved PARP positive nuclei fraction (IST-MEL1) [%] | cleaved PARP positive nuclei fraction (LB2518-MEL) [%] | cleaved PARP positive nuclei fraction (LOXIMVI) [%]
CCCS(=O)(=O)Nc1ccc(F)c(C(=O)c2c[nH]c3ncc(Cl)cc23)c1F + COc1cc2ncnc(Nc3ccc(Oc4ccccc4)cc3)c2cc1OC [SrcI1] (first compound 0.08 µM, partner dose 2 µM) | 143 | 23.4 | 25.9 | 57.6 | 177 | 133 | 63.9 | 171 | 71.7 | 85.5 | 82.5 | 97.8 | 34.8 | 169 | 24.1 | 85.7
Nc1ccn([C@@H]2O[C@H](CO)[C@@H](O)C2(F)F)c(=O)n1 [gemcitabine] + Oc1cc(-c2nc(-c3ccccc3)[nH]c2-c2ccncc2)ccc1Cl [L779450] (first compound 0.0004 µM, partner dose 0.2 µM) | 108 | 44.3 | 124 | 80.5 | 74 | 134 | 72.1 | 140 | 126 | 98.6 | 115 | 150 | 103 | 166 | 91.8 | 111
Nc1ncn([C@H]2C[C@H](O)[C@@H](CO)O2)c(=O)n1 [decitabine] + Oc1nc(-c2ccc(C(F)(F)F)cc2)nc2c1CSCC2 [XAV939] (first compound 0.1 µM, partner dose 2 µM) | 83.4 | 9.57 | 70.7 | 79.4 | 60.6 | 98 | 72 | 143 | 132 | 77.8 | 218 | 155 | 151 | 90.1 | 89.9 | 63.7
O=C(O)c1ccc2c(c1)nc(Nc1cccc(Cl)c1)c1ccncc12 + O=C(Nc1ccccc1)c1cc([N+](=O)[O-])ccc1Cl [GW9662] (first compound 0.4 µM, partner dose 2 µM) | 60.9 | 49.6 | 158 | 133 | 142 | 106 | 190 | 153 | 16.7 | 257 | 138 | 145 | 65.9 | 47.7 | 118 | 91.9
O=C(O)c1ccc2c(c1)nc(Nc1cccc(Cl)c1)c1ccncc12 + COc1ccc(-c2ccc3c(N4CCOCC4)nc(N4C[C@@H](C)O[C@@H](C)C4)nc3n2)cc1CO [KU0063794] (first compound 0.4 µM, partner dose 0.02 µM) | 208 | 29.4 | 130 | 103 | 165 | 206 | 72 | 154 | 240 | 32.6 | 107 | 108 | 138 | 31.6 | 95 | 137
CC(C)C[C@H](NC(=O)[C@H](Cc1ccccc1)NC(=O)c1cnccn1)B(O)O [Bortezomib] + O=c1cc(-c2cccc3c2Sc2ccccc2S3)oc(N2CCOCC2)c1 [KU55933] (first compound 0.001 µM, partner dose 1 µM) | 250 | 323 | 198 | 133 | 175 | 266 | 543 | 113 | 37.9 | 55.1 | 77.2 | 1580 | 158 | 36.1 | 144 | 60.2
Nc1ccn([C@@H]2O[C@H](CO)[C@@H](O)C2(F)F)c(=O)n1 [gemcitabine] + O=C(O)C(=O)Nc1sc2c(c1C(=O)O)CCNC2 [TCS401] (first compound 0.0004 µM, partner dose 1.66667 µM) | 33.8 | 43.3 | 125 | 80.7 | 227 | 129 | 158 | 122 | 149 | 149 | 118 | 75.8 | 70 | 143 | 80.7 | 81.3
CCCS(=O)(=O)Nc1ccc(F)c(C(=O)c2c[nH]c3ncc(Cl)cc23)c1F + CCN(CC)CCCCNc1ncc2cc(-c3cc(OC)cc(OC)c3)c(NC(=O)NC(C)(C)C)nc2n1 [PD173074] (first compound 0.08 µM, partner dose 0.1 µM) | 46.3 | 72.7 | 115 | 98.9 | 89.5 | 91.1 | 27.3 | 95.4 | 57.7 | 30.1 | 132 | 114 | 93 | 79.7 | 67.3 | 80.9
Nc1ncn([C@H]2C[C@H](O)[C@@H](CO)O2)c(=O)n1 [decitabine] + COc1cc2ncnc(Nc3ccc(Oc4ccccc4)cc3)c2cc1OC [SrcI1] (first compound 0.1 µM, partner dose 2 µM) | 73.6 | 38 | 125 | 75.5 | 188 | 93.6 | 29.1 | 94.9 | 49.5 | 79.6 | 85.2 | 163 | 143 | 105 | 77.9 | 186
C[C@@H](Oc1cc(-c2cnn(C3CCNCC3)c2)cnc1N)c1c(Cl)ccc(F)c1Cl [Crizotinib] + COc1ccc2c(c1)CCC1C2CCC2(C)C(NCCCCCCN3C(=O)C=CC3=O)CCC12 [U73122] (first compound 0.2 µM, partner dose 0.4 µM) | 56.8 | 39 | 129 | 151 | 109 | 1050 | 116 | 81.1 | 141 | 38 | 49.8 | 75.8 | 63.3 | 112 | 73.2 | 30
C[C@@H](Oc1cc(-c2cnn(C3CCNCC3)c2)cnc1N)c1c(Cl)ccc(F)c1Cl [Crizotinib] + Cc1cc([N+](=O)[O-])ccc1NS(=O)(=O)c1cc(Cl)ccc1Cl [FH535] (first compound 0.2 µM, partner dose 1 µM) | 151 | 36.3 | 87.4 | 79.3 | 756 | 163 | 1320 | 662 | 99.3 | 54.9 | 123 | 157 | 100 | 397 | 68.1 | 58.9
Nc1ncn([C@H]2C[C@H](O)[C@@H](CO)O2)c(=O)n1 [decitabine] + COc1ccc2c(c1)CCC1C2CCC2(C)C(NCCCCCCN3C(=O)C=CC3=O)CCC12 [U73122] (first compound 0.1 µM, partner dose 0.4 µM) | 74.8 | 26.5 | 17.1 | 35.1 | 81.3 | 99.1 | 122 | 123 | 60.4 | 95.6 | 151 | 132 | 132 | 119 | 93.1 | 218
C[C@@H](Oc1cc(-c2cnn(C3CCNCC3)c2)cnc1N)c1c(Cl)ccc(F)c1Cl [Crizotinib] + CCCCCCCCCCCC1=C(O)C(=O)C=C(O)C1=O [Embelin] (first compound 0.2 µM, partner dose 1.2 µM) | 64.3 | 13.9 | 46.4 | 47.9 | 109 | 78.1 | 54.3 | 98.7 | 98.7 | 135 | 106 | 99.8 | 90.5 | 118 | 70.2 | 201
Nc1ccn([C@@H]2O[C@H](CO)[C@@H](O)C2(F)F)c(=O)n1 [gemcitabine] + COC(=O)c1sccc1S(=O)(=O)Nc1ccc(Nc2ccccc2)cc1OC [GSK0660] (first compound 0.0004 µM, partner dose 1 µM) | 88.6 | 25.1 | 53.5 | 79.6 | 115 | 172 | 49.6 | 94.9 | 91.6 | 186 | 99.8 | 45.5 | 121 | 306 | 234 | 88.4
Nc1nc(F)nc2c1ncn2[C@@H]1O[C@H](CO)[C@@H](O)[C@@H]1O [fludarabine] + COc1ccc(COc2ccc(Cc3cnc(N)nc3N)cc2OC)cc1 [GW2580] (first compound 0.2 µM, partner dose 1 µM) | 2300 | 18.6 | 129 | 81 | 124 | 75.4 | 22.9 | 109 | 103 | 98.3 | 104 | 150 | 336 | 143 | 47.4 | 69.6
Nc1nc(F)nc2c1ncn2[C@@H]1O[C@H](CO)[C@@H](O)[C@@H]1O [fludarabine] + CCCCCCCCCCCC1=C(O)C(=O)C=C(O)C1=O [Embelin] (first compound 0.2 µM, partner dose 1.2 µM) | 1730 | 18.2 | 88.2 | 174 | 108 | 100 | 113 | 86 | 221 | 120 | 93.1 | 86 | 78.1 | 123 | 35.6 | 33.5
Cn1c(=O)n(-c2ccc(C(C)(C)C#N)cc2)c2c3cc(-c4cnc5ccccc5c4)ccc3ncc21 + COc1cc(N2CCC(N3CCN(C)CC3)CC2)ccc1Nc1ncc(Cl)c(Nc2ccccc2S(=O)(=O)C(C)C)n1 [NVP-TAE684] (first compound 0.004 µM, partner dose 0.08 µM) | 89.4 | 43.4 | 181 | 49.9 | 66.8 | 99.5 | 57.7 | 82.1 | 151 | 57.8 | 184 | 62.3 | 50.2 | 101 | 63.9 | 158
CN1CCN(c2ccc3nc(-c4c(N)c5c(F)cccc5[nH]c4=O)[nH]c3c2)CC1 [Dovitinib] + O=C(Nc1ccccc1)c1cc([N+](=O)[O-])ccc1Cl [GW9662] (first compound 0.1 µM, partner dose 2 µM) | 89.7 | 15.5 | 227 | 124 | 41.6 | 98.4 | 35.6 | 72.6 | 12.8 | 202 | 276 | 104 | 93.1 | 89.1 | 57 | 188
C=C(c1ccc(C(=O)O)cc1)c1cc2c(cc1C)C(C)(C)CCC2(C)C [Bexarotene] + CCc1ccc(CCOc2ccc(CC3SC(=O)NC3=O)cc2)nc1 [pioglitazone] (first compound 2 µM, partner dose 2 µM) | 65.1 | 10.4 | 68.5 | 158 | 116 | 86.7 | 107 | 110 | 98.4 | 49.8 | 39.9 | 131 | 121 | 63.9 | 81.7 | 66.5

Reformatted with tabs: entries from further up
SMILES	cleaved PARP positive nuclei fraction (501Mel) [%]	cleaved PARP positive nuclei fraction (A101D) [%]	cleaved PARP positive nuclei fraction (A2058) [%]	cleaved PARP positive nuclei fraction (C32) [%]	cleaved PARP positive nuclei fraction (CBRC008) [%]	cleaved PARP positive nuclei fraction (CBRC014) [%]	cleaved PARP positive nuclei fraction (CBRC016) [%]	cleaved PARP positive nuclei fraction (CBRC017) [%]	cleaved PARP positive nuclei fraction (COLO792) [%]	cleaved PARP positive nuclei fraction (COLO800) [%]	cleaved PARP positive nuclei fraction (COLO829) [%]	cleaved PARP positive nuclei fraction (G361) [%]	cleaved PARP positive nuclei fraction (IPC-298) [%]	cleaved PARP positive nuclei fraction (IST-MEL1) [%]	cleaved PARP positive nuclei fraction (LB2518-MEL) [%]	cleaved PARP positive nuclei fraction (LOXIMVI) [%]
CCCS(=O)(=O)Nc1ccc(F)c(C(=O)c2c[nH]c3ncc(Cl)cc23)c1F + COc1cc2ncnc(Nc3ccc(Oc4ccccc4)cc3)c2cc1OC [SrcI1] (first compound 0.08 µM, partner dose 2 µM)	143	23.4	25.9	57.6	177	133	63.9	171	71.7	85.5	82.5	97.8	34.8	169	24.1	85.7
CCCS(=O)(=O)Nc1ccc(F)c(C(=O)c2c[nH]c3ncc(Cl)cc23)c1F + CCN(CC)CCCCNc1ncc2cc(-c3cc(OC)cc(OC)c3)c(NC(=O)NC(C)(C)C)nc2n1 [PD173074] (first compound 0.08 µM, partner dose 0.1 µM)	46.3	72.7	115	98.9	89.5	91.1	27.3	95.4	57.7	30.1	132	114	93	79.7	67.3	80.9
